In patent US20020137662A1:
No constants are given. Whether binding was seen depends on the method and setting. Binding seen in cells or lysates may run through a third protein. Some results given as binding are weak or reduced against the parent protein; the word gives no strength.

Sequences of proteins named here, by UniProt entry; tags and fusion partners are left off. A change or cut given only in a name is not applied to a line headed by its entry. A line that says so, or that is headed by a name, gives the form on record, which may keep a tag or linker.
UniProt P42003: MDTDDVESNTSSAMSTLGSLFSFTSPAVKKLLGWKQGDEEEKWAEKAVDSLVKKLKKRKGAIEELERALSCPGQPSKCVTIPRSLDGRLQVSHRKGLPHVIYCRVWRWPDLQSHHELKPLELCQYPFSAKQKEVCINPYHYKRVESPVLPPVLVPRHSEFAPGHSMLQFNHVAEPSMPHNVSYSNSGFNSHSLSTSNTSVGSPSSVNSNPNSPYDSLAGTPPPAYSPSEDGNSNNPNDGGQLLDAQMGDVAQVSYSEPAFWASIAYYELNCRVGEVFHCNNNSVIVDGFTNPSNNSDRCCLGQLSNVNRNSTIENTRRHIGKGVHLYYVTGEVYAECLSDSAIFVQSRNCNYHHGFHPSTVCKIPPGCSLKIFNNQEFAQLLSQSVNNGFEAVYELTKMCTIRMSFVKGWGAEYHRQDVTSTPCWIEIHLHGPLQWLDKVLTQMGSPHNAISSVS
GST-dCtBP (O46036, form named): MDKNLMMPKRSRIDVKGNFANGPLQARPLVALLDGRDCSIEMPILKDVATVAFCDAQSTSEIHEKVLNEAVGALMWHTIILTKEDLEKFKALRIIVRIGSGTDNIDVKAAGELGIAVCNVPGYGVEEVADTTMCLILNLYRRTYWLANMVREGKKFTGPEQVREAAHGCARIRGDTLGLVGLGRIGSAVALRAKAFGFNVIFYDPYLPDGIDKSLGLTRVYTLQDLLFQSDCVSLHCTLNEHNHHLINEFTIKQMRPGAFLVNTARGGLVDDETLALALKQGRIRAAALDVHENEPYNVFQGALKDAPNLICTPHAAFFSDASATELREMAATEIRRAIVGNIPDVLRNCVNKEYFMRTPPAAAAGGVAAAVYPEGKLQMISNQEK

Legend:
Knirps = molecular target: T1, Knirps (UniProt P10734); test: GST pull-down, radiolabeled protein on GST-dCtBP beads
T1 sequence (radiolabeled (synthesized in a coupled in vitro system), looked up): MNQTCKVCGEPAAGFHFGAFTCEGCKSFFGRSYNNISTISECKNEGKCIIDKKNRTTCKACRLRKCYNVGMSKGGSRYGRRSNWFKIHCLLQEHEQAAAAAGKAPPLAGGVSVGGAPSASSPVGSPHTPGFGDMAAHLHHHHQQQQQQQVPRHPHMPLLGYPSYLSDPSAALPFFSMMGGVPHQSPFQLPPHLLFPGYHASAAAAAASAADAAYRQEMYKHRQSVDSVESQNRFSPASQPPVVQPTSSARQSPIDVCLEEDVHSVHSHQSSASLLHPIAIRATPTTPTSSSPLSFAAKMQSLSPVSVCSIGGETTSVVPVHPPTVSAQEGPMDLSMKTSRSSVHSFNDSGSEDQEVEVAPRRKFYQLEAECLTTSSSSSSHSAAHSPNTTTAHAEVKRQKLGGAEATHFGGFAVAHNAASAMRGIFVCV

[1] = molecular target: Mad (MadNLC, full length protein) (Drosophila) (UniProt P42003); test: GST pull-down, radiolabeled in vitro translated protein on GST-dCtBP beads
[2] = molecular target: Mad (MadNLC, full length protein) (Drosophila) (UniProt P42003); test: GST pull-down (FIG. 1 legend)
[3] = molecular target: Mad (MadNLC, full length protein) (Drosophila) (UniProt P42003); test: summary of the GST pull-down finding

Measured: binding

GST-dCtBP (from UniProt O46036 1-386)
binds: all assays above
